In publication PMC10702824 one finds binding data, which are given here for 4 molecules.

No constants are given. Whether binding was seen depends on the method and setting. In cells and extracts the contact can be indirect. Some results given as binding are weak or reduced against the parent protein; the word gives no strength.

Among the targets are Sur7 (S. cerevisiae) (UniProt P54003); Sur7ΔC (S. cerevisiae) (UniProt P54003); Sur7ΔN (S. cerevisiae) (UniProt P54003); Nce102 (S. cerevisiae) (UniProt Q12207).
Common to all, as to assay: co-IP; GFP-tagged bait precipitated with mouse anti-GFP on Protein G Sepharose from yeast crude extracts (50 mM Tris/HCl pH 7.4, 300 mM NaCl, 10% glycerin, 1% Triton X-100), overnight at 4°C; HA-tagged prey detected by Western blot; control IP with unspecific IgG
On the technique in general: In western blotting, separated proteins are transferred to a membrane and probed.

B1: Sur7 (protein, UniProt P54003 1-302)
chain: MVKVWNIVLRLVVLLFLAGNTLLLILMIISGATDHYPVNRFYWVQGNTTGIPNAGDETRWTFWGACLQDKDGSDTCTSNLAPAYPISPVDNFNTHINVPHQFISKRDAFYYLTRFSFCFFWIALAFVGVSFILYVLTWCSKMLSEMVLILMSFGFVFNTAAVVLQTAASAMAKNAFHDDHRSAQLGASMMGMAWASVFLCIVEFILLVFWSVRARLASTYSIDNSRYRTSSRWNPFHREKEQATDPILTATGPEDMQQSASIVGPSSNANPVTATAATENQPKGINFFTIRKSHERPDDVSV
Take B1: the binding entry in the assay with Sur7 (S. cerevisiae) is “binds”.

B2: Sur7ΔC (domain or fragment, UniProt P54003 1-210)
chain: MVKVWNIVLRLVVLLFLAGNTLLLILMIISGATDHYPVNRFYWVQGNTTGIPNAGDETRWTFWGACLQDKDGSDTCTSNLAPAYPISPVDNFNTHINVPHQFISKRDAFYYLTRFSFCFFWIALAFVGVSFILYVLTWCSKMLSEMVLILMSFGFVFNTAAVVLQTAASAMAKNAFHDDHRSAQLGASMMGMAWASVFLCIVEFILLVFW
As for B2, the binding entry with Sur7ΔC (S. cerevisiae) is recorded as “binds”.

B3: Sur7ΔN (domain or fragment, UniProt P54003 7-302)
chain: IVLRLVVLLFLAGNTLLLILMIISGATDHYPVNRFYWVQGNTTGIPNAGDETRWTFWGACLQDKDGSDTCTSNLAPAYPISPVDNFNTHINVPHQFISKRDAFYYLTRFSFCFFWIALAFVGVSFILYVLTWCSKMLSEMVLILMSFGFVFNTAAVVLQTAASAMAKNAFHDDHRSAQLGASMMGMAWASVFLCIVEFILLVFWSVRARLASTYSIDNSRYRTSSRWNPFHREKEQATDPILTATGPEDMQQSASIVGPSSNANPVTATAATENQPKGINFFTIRKSHERPDDVSV
As for B3, the binding entry with Sur7ΔN (S. cerevisiae) is given as “binds”.

B4: Nce102 (protein, UniProt Q12207 1-173)
chain: MLALADNILRIINFLFLVISIGLISSLLNTQHRHSSRVNYCMFACAYGIFTDSLYGVFANFIEPLAWPLVLFTLDFLNFVFTFTAGTVLAVGIRAHSCNNSSYVDSNKITQGSGTRCRQAQAAVAFLYFSCAIFLAKTLMSVFNMISNGAFGSGSFSKRRRTGQVGVPTISQV
In the case of B4, the binding entry with Nce102 (S. cerevisiae) is given as “binds”.
